Measured values as given in patent US12157773 (SYNTHEKINE, dated 2024).
These are yes or no findings as the source states them, for the method shown. Some binding calls cover weakened binding; strength is not graded here. Tags and fused reporters may be left off the sequences shown.

The chains behind the UniProt entries cited, without tags or fusion partners. Where a name states a change or a piece, a line headed by the entry shows the natural chain unless it says otherwise.
UniProt Q6UWB1: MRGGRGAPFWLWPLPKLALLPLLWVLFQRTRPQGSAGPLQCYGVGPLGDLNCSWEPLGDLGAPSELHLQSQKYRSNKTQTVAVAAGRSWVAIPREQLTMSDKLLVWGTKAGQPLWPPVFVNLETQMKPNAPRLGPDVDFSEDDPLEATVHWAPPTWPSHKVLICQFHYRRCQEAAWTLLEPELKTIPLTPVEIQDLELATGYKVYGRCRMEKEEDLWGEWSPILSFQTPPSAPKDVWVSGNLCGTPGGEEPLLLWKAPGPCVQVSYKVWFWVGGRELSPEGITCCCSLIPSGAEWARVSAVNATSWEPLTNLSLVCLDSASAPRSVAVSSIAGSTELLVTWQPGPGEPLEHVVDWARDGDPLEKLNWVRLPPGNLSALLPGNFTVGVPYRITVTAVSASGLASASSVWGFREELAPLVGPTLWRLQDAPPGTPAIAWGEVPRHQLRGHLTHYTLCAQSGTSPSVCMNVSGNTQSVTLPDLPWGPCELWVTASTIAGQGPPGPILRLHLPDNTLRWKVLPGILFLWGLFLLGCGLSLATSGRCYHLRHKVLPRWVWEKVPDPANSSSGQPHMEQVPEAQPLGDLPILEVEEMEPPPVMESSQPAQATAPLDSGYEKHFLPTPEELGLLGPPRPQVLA

The binders below were run against hIL27Ra-his (Origene, Catalog# TP307012) (human) (UniProt Q6UWB1) (assay: SPR, Mono-Fc VHH on Protein A chip).

Binder | binding
hIL27R VHH9 Mono-Fc VHH (Fc fusion, not shown: a dimerising Fc or GST) QVQLQESGGGSVQSGGSLRLSCAASGFTYSTSNSWMAWFRQAPGKEREGVAAIYTVGGSIFYADSVRGRFTISQDATKNMFYLQMNTLKPEDTAMYYCAAASGRLRGKWFWPYEYNYWGQGTQVTVSS | binds
hIL27R VHH1 Mono-Fc VHH (Fc fusion, not shown: a dimerising Fc or GST) QVQLQESGGGLVQPGGSLRLSCAASGFTFSSYPMSWVRQAPGKGLEWISTISAGGDTTLYADSVKGRFTSSRDNAKNTLYLQLNSLKTEDAAIYYCAKRIDCNSGYCYRRNYWGQGTQVTVSS | binds
hIL27R VHH15 Mono-Fc VHH (Fc fusion, not shown: a dimerising Fc or GST) QVQLQESGGGSVQAGGSLRLSCVASGYVSCDYFLPSWYRQAPGKEREFVSIIDGTGSTSYAASVKGRFTASQDKGKNIAYLQMNTLKPEDTAMYYCKASCVRGRAISEYWGQGTQVTVSS | binds

Other lines, results leading:

binding | Binder
binds | hIL27R VHH21 Mono-Fc VHH (Fc fusion, not shown: a dimerising Fc or GST) QVQLQESGGGLVQPGGSLRLSCAASGFTFSLSSMSWVRQAPGKGLEWVSAISSGGASTYYTDSVKGRFTISRDNAKNMLYLQLNSLKTEDTAMYYCAKGGSGYGDASRMTSPGSQGTQVTVSS
binds | hIL27R VHH19 Mono-Fc VHH (Fc fusion, not shown: a dimerising Fc or GST) QVQLQESGGGSVQAGGSLRLSCRASGSTYSNYCLGWFRQITGKEREGVAVINWVGGMLYFADSVKGRFTVSQDQAKNTVYLQMNSLKPEDTAMYYCAAESVSSFSCGGWLTRPDRVPYWGQGTQVTVSS
